Out of some 330,000 compounds screened, about 1,000 (0.3%) were called active. Inconclusive means that the source gave no clear call. Such entries were picked first, then a sample of the others. Calls follow the shape of the dose curve; as a rule, active = well fitted inhibition curve with a large enough effect; inconclusive = small, poorly fitted or top-dose-only effect; inactive = no such curve, though single readings can be large or run the other way; tested in mouse RAW 264.7 cells. A potency beside an inconclusive call is a rough fit, not a confirmed value.
Assay: qHTS for Inhibitors of Cell Surface uPA Generation; also: nearly all actives have a fitted effect of over 55% in size
Conditions: cell surface uPA generation assay; series mostly up to 38.3 µM; activity change, negative = inhibition: at the top concentration
How it was run: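 Murine RAW 264.7 cells are treated for 24 h with compound up to 38.3 uM final. Cell ATP, measured by ATP-Lite, remains high if blocking the uPA cascade prevents LF from reaching the cytoplasm.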
% is scaled to controls: 0 for no effect and ±100 for the full control effect; potency is read from the fitted curve at half-maximal effect.

| SMILES | activity change, negative = inhibition | Potency |
| --- | --- | --- |
| CCc1ccc(S(=O)(=O)Nc2cccc(-c3ccc4nnc(C)n4n3)c2)s1 | inactive: 0.242% | – |
| Cc1ccc(CNC(=O)c2cc3c(s2)CN(Cc2ccccc2)C3)cc1 | inactive: -1.41% | – |
| O=C(COC(=O)Cc1ccccc1F)Nc1ccc(SC(F)F)cc1 | inactive: -1.75% | – |
| O=C(N/N=C/c1ccc2c(c1)OCO2)c1ccccn1 | – | inconclusive: 1.58 µM [inhibitor, partial curve] |
| Cn1cc(CN2CCC(N3CCNC(=O)CC3)CC2)c(-c2ccccc2F)n1 | inactive: 0.519% | – |
| Cc1cc(C)c(S(=O)(=O)N2CCCc3ccccc32)c(C)c1 | – | inconclusive: 11.2 µM [inhibitor, partial curve] |
| Cc1cccc(N=C2NC(=O)/C(=C/c3cccn3C)S2)c1 | – | inconclusive: 12.6 µM [inhibitor, single point] |
| Fc1ccc(-c2nnc3ccccn23)cc1 | inactive: 5.15% | – |
| COC(=O)c1ccc(NS(=O)(=O)c2cc(-c3cc(C)no3)ccc2OC)cc1 | – | inconclusive: 2 µM [inhibitor, full curve, poor fit] |
| COC(=O)c1c(-c2ccc(SC)cc2)sc2ccccc12 | – | inconclusive: 12.6 µM [inhibitor, single point] |
| O=S(=O)(Nc1ccc(-n2cnnn2)cc1)c1cccs1 | – | inconclusive: 12.6 µM [inhibitor, single point] |
| Cc1cc(S(=O)(=O)c2ccc([N+](=O)[O-])cn2)ccc1Br | inactive: -8.39% | – |
| Cc1cc(C)c(C#N)c(SCC2COc3ccccc3O2)n1 (configuration not stated) | inactive: 9.82% | – |
| COC(=O)c1ccc(COC(=O)Cc2n[nH]c(=O)c3ccccc23)cc1 | inactive: -10.8% | – |
| C=CC[C@H](CC(=O)N(CCO)Cc1ccccc1)C(=O)N[C@@H](COC(=O)[C@@H](CC=C)Cc1ccc(F)cc1)Cc1c[nH]c2ccccc12 | – | inconclusive: 28.2 µM [inhibitor, single point] |
| O=C(COC(=O)c1ccc([N+](=O)[O-])o1)Nc1cccc(S(=O)(=O)N2CCCCC2)c1 | inactive: -0.389% | – |
| O=C(Nc1nnc(-c2cccs2)o1)c1cc(-c2ccccc2)nc2ccccc12 | – | inconclusive: 4.47 µM [inhibitor, partial curve] |
| COc1ccc(C(=O)c2ncc(C(F)(F)F)cc2Cl)cc1 | inactive: 5.64% | – |
| C=C1CCC[C@]2(C)C[C@H]3OC(=O)C(CNC(C)CC)[C@H]3CC12 (some centres not stated) | – | inconclusive: 5.01 µM [inhibitor, partial curve] |
| COc1ccc(-c2ccc(SCC(=O)N3CCOCC3)nn2)cc1 | – | inconclusive: 5.62 µM [inhibitor, partial curve, poor fit] |
| COc1ccc(OC)c2c1sc(=NC(=O)c1ccco1)n2C | – | inconclusive: 12.6 µM [inhibitor, single point] |
| COc1ccccc1CN1CCN(S(=O)(=O)c2ccccc2)CC1 | inactive: 1.8% | – |
| O=[N+]([O-])c1ccc(/C=N/Nc2ccc3ccccc3c2)o1 | – | inconclusive: 8.91 µM [inhibitor, single point] |
| COc1ccc(Cl)c(OC)c1C(=O)NC(=O)Nc1c(F)cc(F)cc1F | inactive: 11.5% | – |

| SMILES | activity change, negative = inhibition | Potency |
| --- | --- | --- |
| CC(=O)Nc1ccccc1OCC(=O)NC(C)c1ccccc1 (configuration not stated) | inactive: 4.24% | – |
| COCCN(CCOC)S(=O)(=O)c1ccc(C(=O)Nc2nnc(CSC)o2)cc1 | inactive: -1.28% | – |
| CCCCN(C(=O)CSc1nnc(Nc2ccccc2)s1)c1c(N)n(CCC)c(=O)[nH]c1=O | – | inconclusive: 25.1 µM [inhibitor, partial curve, poor fit] |
| CCOC(=O)c1oc2ccc(CNC(C)(C)C)c(Cl)c2c1C | – | inconclusive: 8.91 µM [inhibitor, single point] |
| Cc1ccc(S(=O)(=O)N(CC(=O)NCc2ccccc2Cl)C(=O)N2CCN(C)CC2)cc1 | – | inconclusive: 1.78 µM [inhibitor, partial curve, poor fit] |
| Cc1ccc(S(=O)(=O)N2CCOCC2)cc1NC(=O)COc1ncnc2ccccc12 | inactive: 8.54% | – |
| COCc1cc(S(=O)c2ccc(Cl)cc2)nc(C)n1 (configuration not stated) | – | active: 5.01 µM |
| O=C(c1cc2ccccc2oc1=O)N(Cc1ccccc1)C1CCS(=O)(=O)C1 (configuration not stated) | inactive: -2.62% | – |
| COc1cccc(CNC(=O)CCC2CCCN(C(=O)c3ccc(OC)c(F)c3)C2)c1 (configuration not stated) | inactive: -21.8% | – |
| O=C(CNc1cccc2ccccc12)N/N=C/c1ccc([N+](=O)[O-])o1 | – | inconclusive: 12.6 µM [inhibitor, single point] |
| O=C(NCCCn1ccnc1)c1cc(-c2ccccc2)on1 | – | active: 5.62 µM |
| CCCCCCOc1ccc(N2C(=O)CC(N(CCc3ccc(S(N)(=O)=O)cc3)C(C)=O)C2=O)cc1 (configuration not stated) | inactive: 0.558% | – |
| Cn1c(NCc2ccco2)nc2c1c(=O)n(Cc1ccc(Br)cc1)c(=O)n2C | inactive: 3.69% | – |
| N#Cc1cccc2c1-c1ccccc1/C2=N/NC(N)=O | – | inconclusive: 12.6 µM [inhibitor, single point] |
| O=C(Nc1cccc(C(F)(F)F)c1)c1sc(Cl)nc1C(F)(F)F | – | inconclusive: 0.708 µM [inhibitor, full curve, poor fit] |
| Cc1c(C(=O)NCCSCc2cccc(C(F)(F)F)c2)cnn1-c1ccc(Cl)cc1 | inactive: 2.22% | – |
| O=C(CCc1nc2ccccc2c(=O)[nH]1)NNC(=O)c1ccc(F)cc1 | – | inconclusive: 5.62 µM [inhibitor, partial curve, poor fit] |
| Cc1ccccc1C(=O)NNc1ncnc2c1cnn2C | inactive: -2.59% | – |
| COc1ccc(C(=O)N(CC2CCCO2)C(C(=O)NC2CCCC2)c2ccc(Cl)cc2)cc1OC (configuration not stated) | inactive: 1.82% | – |
| CCc1nnc(N2C(=N)SCC2=O)s1 | inactive: 2.17% | – |
| ClCc1nnc(-c2ccccc2)o1 | – | inconclusive: 10 µM [inhibitor, partial curve, poor fit] |
| Cc1ccc(NC(=O)c2cccs2)cc1S(=O)(=O)Nc1cccc(Cl)c1 | inactive: -4.44% | – |
| CC(=O)Oc1ccc(Nc2ccccc2)cc1 | – | inconclusive: 10 µM [inhibitor, partial curve, poor fit] |
| CC1=CC(C)(C)N(S(=O)(=O)c2ccc(F)cc2)c2ccc(C)cc21 | – | inconclusive: 5.01 µM [inhibitor, partial curve] |

4 compounds drawn at random from those above:

| SMILES | activity change, negative = inhibition | Potency |
| --- | --- | --- |
| CCOC(=O)c1oc2ccc(CNC(C)(C)C)c(Cl)c2c1C | – | inconclusive: 8.91 µM [inhibitor, single point] |
| COc1ccc(C(=O)N(CC2CCCO2)C(C(=O)NC2CCCC2)c2ccc(Cl)cc2)cc1OC (configuration not stated) | inactive: 1.82% | – |
| O=C(CCc1nc2ccccc2c(=O)[nH]1)NNC(=O)c1ccc(F)cc1 | – | inconclusive: 5.62 µM [inhibitor, partial curve, poor fit] |
| Fc1ccc(-c2nnc3ccccn23)cc1 | inactive: 5.15% | – |

(list continues)

| SMILES | activity change, negative = inhibition | Potency |
| --- | --- | --- |
| O=C(/C=C/c1cccs1)NNC(=O)c1ccccc1 | – | inconclusive: 3.16 µM [inhibitor, partial curve, poor fit] |
| Cc1c(Cl)cccc1Nc1nc(N)nc(CN2CCc3ccccc3C2)n1 | inactive: -2.84% | – |
| COC(=O)CSC1=C(C#N)C(c2ccc(C)o2)CC(=O)N1 (configuration not stated) | inactive: -15.8% | – |
| COC(=O)N1CC=CC1(C)C(=O)NCc1cc(F)cc(C(F)(F)F)c1 (configuration not stated) | – | active: 7.94 µM |
| C[C@H](CO)N1C[C@H](C)[C@H](CN(C)Cc2ccccc2)Oc2ccc(NC(=O)Nc3ccc(F)cc3)cc2C1=O | – | inconclusive: 12.6 µM [inhibitor, partial curve, poor fit] |
| O=C(N/N=C/c1ccccc1OCc1ccccc1)c1cccnc1 | – | inconclusive: 12.6 µM [inhibitor, single point] |
| CCOC(=O)Cc1csc(NC(=O)CCS(=O)(=O)Cc2ccccc2)n1 | inactive: -7.73% | – |
| COc1ccccc1C(=O)C1CCCN(C(=O)c2cnn(C(C)C)c2)C1 (configuration not stated) | – | inconclusive: 0.631 µM [inhibitor, partial curve, poor fit] |
| Cc1cccc(C)c1NC(=O)CN(C)C(=O)c1cc(S(=O)(=O)N(C)C)ccc1N1CCCC1 | – | inconclusive: 7.94 µM [inhibitor, single point] |
| Cc1ccc2c(c1)c1c(n2CC(O)CNC2CCCCC2)CCCC1 (configuration not stated) | – | inconclusive: 22.4 µM [inhibitor, single point] |
| CCOc1ccc(NC2=C(Cl)C(=O)N(Cc3ccccc3)C2=O)cc1 | – | inconclusive: 8.91 µM [inhibitor, partial curve, poor fit] |
| S=C(NC1CC1)SCc1ccco1 | – | inconclusive: 22.4 µM [inhibitor, single point] |
| N/C(=N\OC(=O)c1ccc(Cl)c([N+](=O)[O-])c1)c1ccccc1 | – | inconclusive: 1.41 µM [inhibitor, full curve, poor fit] |
| COCCNC(=O)COC(=O)/C=C/c1c(C)nn(Cc2ccc(Cl)cc2Cl)c1Cl | inactive: -13.5% | – |
| COc1ccc(C(=O)Nc2oc(-c3ccccc3)c(-c3ccccc3)c2C#N)cc1OC | – | inconclusive: 7.94 µM [inhibitor, partial curve, poor fit] |
| Cc1cccc(/C=C/c2onc(C)c2S(=O)(=O)N2CCC(C(=O)NC(C)C)CC2)c1 | inactive: -4.1% | – |
| Cn1cc([N+](=O)[O-])c(C(=O)Nc2ccc3c(c2)OCCO3)n1 | – | inconclusive: 11.2 µM [inhibitor, partial curve, poor fit] |
| CN(C(=O)c1cc2c(=O)n3ccccc3nc2n1C)C1CCCCC1 | – | inconclusive: 8.91 µM [inhibitor, partial curve, poor fit] |
| Cc1nn(-c2ccccc2)c(C)c1C(=O)N1CCN(S(=O)(=O)c2ccccc2)CC1 | inactive: 24.8% | – |
| NC(=O)CC(NC(=O)Cc1ccc(Br)cc1)c1ccc(NCc2ccc(F)cc2)c([N+](=O)[O-])c1 (configuration not stated) | – | inconclusive: 7.08 µM [inhibitor, partial curve, poor fit] |
| COc1ccc(NS(=O)(=O)c2cccc(C(=O)NN=C(C)c3ccco3)c2)cc1 | – | inconclusive: 14.1 µM [inhibitor, partial curve, poor fit] |
| O=C(NN=C1CCCC1)c1ccc(O)cc1O | – | inconclusive: 4.47 µM [inhibitor, partial curve, poor fit] |
| Cc1cc(C(=O)CN2C(=O)C(=O)N(Cc3ccco3)C2=O)c(C)n1CCc1ccc(F)cc1 | – | inconclusive: 12.6 µM [inhibitor, single point] |
| Cc1ccc(S(=O)(=O)n2cc(-c3ccccc3)c3ccccc32)cc1 | – | active: 1.12 µM |
